This note sets out measurements from paper PMC9614079.

Amino acid sequences for entries named in this document (tags omitted).
UniProt Q96KP1: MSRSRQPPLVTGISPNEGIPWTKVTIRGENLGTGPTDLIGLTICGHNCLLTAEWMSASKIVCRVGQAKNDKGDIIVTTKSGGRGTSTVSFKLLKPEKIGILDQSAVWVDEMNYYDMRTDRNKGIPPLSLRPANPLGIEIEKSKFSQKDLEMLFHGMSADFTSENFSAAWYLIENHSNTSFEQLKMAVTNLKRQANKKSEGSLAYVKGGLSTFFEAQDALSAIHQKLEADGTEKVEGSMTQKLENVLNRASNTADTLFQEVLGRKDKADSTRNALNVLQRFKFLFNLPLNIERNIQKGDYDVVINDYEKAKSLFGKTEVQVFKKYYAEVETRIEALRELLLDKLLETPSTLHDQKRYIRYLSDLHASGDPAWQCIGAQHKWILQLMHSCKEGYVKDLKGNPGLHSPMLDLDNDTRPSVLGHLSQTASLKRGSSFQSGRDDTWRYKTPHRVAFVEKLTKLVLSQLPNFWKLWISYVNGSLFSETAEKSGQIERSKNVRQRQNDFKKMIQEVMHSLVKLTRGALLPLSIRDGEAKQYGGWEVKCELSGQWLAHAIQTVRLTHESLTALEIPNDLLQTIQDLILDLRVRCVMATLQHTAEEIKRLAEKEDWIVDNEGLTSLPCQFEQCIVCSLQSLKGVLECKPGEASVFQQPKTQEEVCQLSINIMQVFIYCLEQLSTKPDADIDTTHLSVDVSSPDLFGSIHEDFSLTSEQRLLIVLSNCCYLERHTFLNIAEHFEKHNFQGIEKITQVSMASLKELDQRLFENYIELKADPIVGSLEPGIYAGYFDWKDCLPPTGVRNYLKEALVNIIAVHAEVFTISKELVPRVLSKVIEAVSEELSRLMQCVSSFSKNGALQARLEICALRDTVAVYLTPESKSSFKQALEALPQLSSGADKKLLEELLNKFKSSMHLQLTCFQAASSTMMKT

These are yes or no findings as the source states them, for the method shown. Binding seen in cells or lysates may run through a third protein. Some binding calls cover weakened binding; strength is not graded here.

This assay addresses T1, STAT6 (human (endogenous in THP-1)) (UniProt P42226).
T1 sequence: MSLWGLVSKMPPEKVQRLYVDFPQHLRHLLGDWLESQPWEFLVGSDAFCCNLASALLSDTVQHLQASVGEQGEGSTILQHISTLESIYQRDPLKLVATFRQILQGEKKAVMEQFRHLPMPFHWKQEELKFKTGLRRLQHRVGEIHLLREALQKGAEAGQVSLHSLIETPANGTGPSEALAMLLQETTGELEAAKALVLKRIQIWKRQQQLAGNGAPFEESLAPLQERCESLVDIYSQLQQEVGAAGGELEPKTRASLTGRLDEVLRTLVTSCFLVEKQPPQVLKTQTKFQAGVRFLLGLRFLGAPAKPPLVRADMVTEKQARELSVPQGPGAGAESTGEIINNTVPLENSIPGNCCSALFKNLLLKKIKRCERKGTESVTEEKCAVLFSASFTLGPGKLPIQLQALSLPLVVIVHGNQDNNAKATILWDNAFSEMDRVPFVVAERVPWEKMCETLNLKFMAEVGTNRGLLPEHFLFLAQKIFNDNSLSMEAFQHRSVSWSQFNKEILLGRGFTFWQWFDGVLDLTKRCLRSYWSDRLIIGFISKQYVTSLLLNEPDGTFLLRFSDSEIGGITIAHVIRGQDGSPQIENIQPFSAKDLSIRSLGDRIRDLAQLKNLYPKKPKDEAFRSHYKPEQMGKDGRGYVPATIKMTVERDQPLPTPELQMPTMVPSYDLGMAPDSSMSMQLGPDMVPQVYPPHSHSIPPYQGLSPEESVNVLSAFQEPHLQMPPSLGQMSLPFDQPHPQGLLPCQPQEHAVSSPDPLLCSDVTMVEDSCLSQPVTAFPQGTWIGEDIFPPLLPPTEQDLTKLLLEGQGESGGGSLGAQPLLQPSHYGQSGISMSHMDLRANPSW
Put plainly: co-IP; lysates (1 mg protein, 1x DPBS with 1% Triton X-100) of THP-1-derived macrophages in M0 state or M2 state (IL-4 + IL-13); rabbit SEC5 or STAT6 antibody (10 ug) or rabbit IgG isotype control on protein G agarose, 2 h, three washes with PBS; western blot. In general terms: Immunoblotting shows a protein as a band on a membrane.

Regarding SEC5 (from UniProt Q96KP1 1-924), the binding entry is on record as “binds”.
